Data: paper PMC4446440, “Structural and functional analysis reveals that human OASL binds dsRNA to enhance RIG-I signaling” (Nucleic Acids Research, 2015)
Weaker means in comparison with the reference protein, sequence or condition of that experiment. Tags and fusion partners may be left off the protein sequences shown.

Tests used:
OLD K66E (Homo sapiens) [1] = molecular target: T1, OLD K66E (Homo sapiens) (UniProt Q15646); assay: EMSA (RNA retention); settings: dsRNA 10 uM, K66E 0-56 uM, impairment partly overcome at higher concentration; 100 mM DL-malic acid pH 5.9, 200 (unit not given) Na2SO4, 300 mM NaCl, 1.5 mM MgCl2, 2 mM BME, 5% glycerol; 37 C 15 min; native PAGE in 0.5x TBE; recombinant protein; residues 1-350; protein details: C-terminal 6xHis
T1 sequence (looked up): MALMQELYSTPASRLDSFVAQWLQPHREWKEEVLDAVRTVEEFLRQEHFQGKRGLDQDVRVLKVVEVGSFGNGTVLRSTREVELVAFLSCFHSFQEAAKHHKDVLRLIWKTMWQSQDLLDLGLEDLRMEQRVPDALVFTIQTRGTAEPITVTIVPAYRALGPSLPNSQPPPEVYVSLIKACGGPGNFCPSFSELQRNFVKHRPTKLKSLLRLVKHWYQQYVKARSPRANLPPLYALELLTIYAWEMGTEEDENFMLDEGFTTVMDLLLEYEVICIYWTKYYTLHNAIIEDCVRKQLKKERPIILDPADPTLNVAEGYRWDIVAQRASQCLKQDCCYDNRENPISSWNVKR

OLD K66E (Homo sapiens) [2] = molecular target: T1, OLD K66E (Homo sapiens); assay: EMSA; settings: OLD K66E 2.4 uM, dsRNA 8.6 uM, protein stained/immunoblot, 1.5 mM Mg2+; 100 mM DL-malic acid pH 5.9, 200 (unit not given) Na2SO4, 300 mM NaCl, 1.5 mM MgCl2, 2 mM BME, 5% glycerol; 37 C 15 min; native PAGE in 0.5x TBE; recombinant protein; residues 1-350; protein details: C-terminal 6xHis

**Q.** Does “GGCUUUUGACCUUUAUGC / GCAUAAAGGUCAAAAGCC [18 bp dsRNA]” bind (OLD K66E (Homo sapiens) [1])?
**A.** binds more weakly

**Q.** Does “GGCUUUUGACCUUUAUGC / GCAUAAAGGUCAAAAGCC [18 bp dsRNA]” bind (OLD K66E (Homo sapiens) [2])?
**A.** binds more weakly
